From the supplement of paper PMC9233669
This sample is rich in variants without activity.

What was measured:
biotinyl-Ile-oxazolone = assay: self-aminoacylation, catalytic enhancement (BIO) (fold over background); higher = more active; k-Seq, kA / k0A0; sequences stand for … in GGGAAUGGAUCCACAUCUACGAAUUC…UUCACUGCAGACUUGACGAAGCUG
In short: (§1)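 Mutagenized RNA pools with a 21-nt variable region (0.43 μM) were reacted with each biotinyl-aminoacyl-oxazolone at 2–1250 μM for 90 minutes at room temperature, in 50 μL HEPES/NaCl/KCl/MgCl2/CaCl2 buffer containing 5% acetonitrile at pH 6.9–7.0. RNA captured on streptavidin was quantified by triplicate qPCR and by Illumina sequencing. The fraction reacted for each sequence was fit to a pseudo-first-order model with bootstrapping, and catalytic enhancement is the median kA divided by the uncatalyzed rate, taken as the low-activity peak of a bimodal Gaussian fit.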

biotinyl-Val-oxazolone = assay: self-aminoacylation, catalytic enhancement (BVO) (fold over background); higher = more active; k-Seq, kA / k0A0; sequences stand for … in GGGAAUGGAUCCACAUCUACGAAUUC…UUCACUGCAGACUUGACGAAGCUG
In short: as §1

biotinyl-Met-oxazolone = assay: self-aminoacylation, catalytic enhancement (BMO) (fold over background); higher = more active; k-Seq, kA / k0A0; sequences stand for … in GGGAAUGGAUCCACAUCUACGAAUUC…UUCACUGCAGACUUGACGAAGCUG
In short: as §1

biotinyl-Leu-oxazolone = assay: self-aminoacylation, catalytic enhancement (BLO) (fold over background); higher = more active; k-Seq, kA / k0A0; sequences stand for … in GGGAAUGGAUCCACAUCUACGAAUUC…UUCACUGCAGACUUGACGAAGCUG
In short: as §1

| Sequence | self-aminoacylation (biotinyl-Ile-oxazolone) | self-aminoacylation (biotinyl-Val-oxazolone) | self-aminoacylation (biotinyl-Met-oxazolone) | self-aminoacylation (biotinyl-Leu-oxazolone) |
| --- | --- | --- | --- | --- |
| AAGUUUGCCAAUUGUCGCAAG [Fam3.1 aminoacylation ribozyme variant] | 1.28 | 1.14 | 1.47 | 1.15 |
| CCACUUCAAACGAUCGGUCUG [Fam1A.1 aminoacylation ribozyme variant] | 1.12 | 1.27 | 1.11 | 0.869 |
| CUCCUUCAAACAAUCGGUGUG [Fam1A.1 aminoacylation ribozyme variant] | 1.06 | 1.14 | 1.17 | 1.49 |
| AUUAGCCUGGUCGUCGAGUGA [Fam2.1 aminoacylation ribozyme variant] | 1.06 | 1.17 | 1.41 | 1.49 |
| CCCCAAUUCAAGCAAUCGGUC [Fam1B.1 aminoacylation ribozyme variant] | 1.89 | 1.83 | 1.79 | 1.82 |
| CUAGUUCAAUCAAUCGGUCUG [Fam1A.1 aminoacylation ribozyme variant] | 0.812 | 0.91 | 0.767 | 0.924 |
| CUGCUUCCAACAAUCGGUCUG [Fam1A.1 aminoacylation ribozyme variant] | 0.634 | 0.691 | 0.737 | 0.73 |
| AAGUUCUCUAAUAGUCGCAAG [Fam3.1 aminoacylation ribozyme variant] | 1.37 | 1.38 | 1.51 | 1.63 |
| AAGUUUGCUACUAGUCGCCAG [Fam3.1 aminoacylation ribozyme variant] | 1.27 | 1.1 | 1.26 | 0.749 |
| CCACACUUCACGGAAUCGGUC [Fam1B.1 aminoacylation ribozyme variant] | 1.16 | 1.39 | 1.14 | 1.65 |
| UCACACUUCAAGUAAUCGGUC [Fam1B.1 aminoacylation ribozyme variant] | 0.924 | 0.901 | 0.755 | 0.895 |
| CCAGACUUCAAGGAAUCGGUC [Fam1B.1 aminoacylation ribozyme variant] | 1.15 | 1.17 | 1.25 | 1.43 |
| CUACUUGAAACAAUCGGCCUG [Fam1A.1 aminoacylation ribozyme variant] | 1.84 | 1.68 | 1.96 | 1.45 |
| CCACACUUCAAGCAAUCAGUC [Fam1B.1 aminoacylation ribozyme variant] | 0.782 | 0.856 | 0.666 | 0.85 |
| CUACUUCAAUCAAUCGGCCUG [Fam1A.1 aminoacylation ribozyme variant] | 1.64 | 1.74 | 1.41 | 2.56 |
| CCGCACUUCAAUCAAUCGGUC [Fam1B.1 aminoacylation ribozyme variant] | 1.27 | 1.62 | 1.26 | 2.03 |
| ACACACUUCAGGCAAUCGGUC [Fam1B.1 aminoacylation ribozyme variant] | 1.56 | 1.44 | 1.38 | 1.42 |
| AAGGUUGCUAAUAGUCGUAAG [Fam3.1 aminoacylation ribozyme variant] | 1.18 | 1.17 | 1.13 | 0.968 |
| CCACACUUUAAGCAAUGGGUC [Fam1B.1 aminoacylation ribozyme variant] | 0.696 | 0.613 | 0.686 | 0.618 |
| CCAUACUUCAAUCAAUCGGUC [Fam1B.1 aminoacylation ribozyme variant] | 1.13 | 1.05 | 0.959 | 1.31 |
| AUUACCCUGGGCAUCAAGUGA [Fam2.1 aminoacylation ribozyme variant] | 1.16 | 1.37 | 1.76 | 1.73 |
| AUUACCCUGGUCUUCGAAUGA [Fam2.1 aminoacylation ribozyme variant] | 0.649 | 0.728 | 0.746 | 0.694 |
| UUUCUUCAAACAAUCGGUCUG [Fam1A.1 aminoacylation ribozyme variant] | 0.981 | 0.864 | 1.17 | 1.05 |
| CUUCUUCAAACAAUCGGUCUA [Fam1A.1 aminoacylation ribozyme variant] | 0.776 | 0.802 | 0.747 | 0.721 |
| CUACUGCAAACAAUCGGCCUG [Fam1A.1 aminoacylation ribozyme variant] | 1.59 | 2.27 | 2.1 | 2.27 |

| Sequence | self-aminoacylation (biotinyl-Ile-oxazolone) | self-aminoacylation (biotinyl-Val-oxazolone) | self-aminoacylation (biotinyl-Met-oxazolone) | self-aminoacylation (biotinyl-Leu-oxazolone) |
| --- | --- | --- | --- | --- |
| CCACACUUCAACCAAUCGGUG [Fam1B.1 aminoacylation ribozyme variant] | 3.05 | 2.91 | 3.66 | 6.37 |
| AUUACCCUGGUCAUCGCAUGA [Fam2.1 aminoacylation ribozyme variant] | 2.01 | 1.75 | 3.2 | 3.5 |
| CUACUUCAAUCAAUCGGACUG [Fam1A.1 aminoacylation ribozyme variant] | 0.717 | 0.678 | 0.691 | 0.599 |
| CUACUUCAAACAAUCGGUGUG [Fam1A.1 aminoacylation ribozyme variant] | 0.982 | 0.994 | 1.11 | 1.3 |
| CUACUUAAAACAAUCGGUCCG [Fam1A.1 aminoacylation ribozyme variant] | 0.878 | 0.835 | 1.12 | 0.908 |
| AUUCACCUGCGUCAUCGGGUG [Fam2.2 aminoacylation ribozyme variant] | 5.17 | 5.41 | 7.79 | 10.6 |
| AAGUUCGCUAAUAGUCGCAUG [Fam3.1 aminoacylation ribozyme variant] | 2.16 | 2.37 | 2.27 | 2.88 |
| GUACUUCAAACAAUCGGUCCG [Fam1A.1 aminoacylation ribozyme variant] | 1.38 | 1.24 | 1.39 | 1.68 |
| CUAGUUCACACAAUCGGUCUG [Fam1A.1 aminoacylation ribozyme variant] | 1.28 | 1.14 | 1.13 | 1.36 |
| AAGUCGGCUAAUAGUCGCAAG [Fam3.1 aminoacylation ribozyme variant] | 1.44 | 1.61 | 1.66 | 1.73 |
| AAGUAUGCUAAUAGUCGUAAG [Fam3.1 aminoacylation ribozyme variant] | 1.66 | 1.36 | 1.75 | 1.47 |
| UAGUUUGCUAACAGUCGCAAG [Fam3.1 aminoacylation ribozyme variant] | 1.78 | 1.62 | 1.5 | 1.35 |
| AAGUUUGCUAAUAGUCUCAAG [Fam3.1 aminoacylation ribozyme variant] | 1.21 | 1.15 | 1.2 | 0.984 |
| CUAAUUCAAACAAUCGGGCUG [Fam1A.1 aminoacylation ribozyme variant] | 0.805 | 0.852 | 0.87 | 1.02 |
| GUACUUCAAACAAUCGGUCUC [Fam1A.1 aminoacylation ribozyme variant] | 1.5 | 1.4 | 1.65 | 2.06 |
| AUUCAGCUAGGUCAUCGGGUA [Fam2.2 aminoacylation ribozyme variant] | 3.18 | 3.3 | 3.6 | 3.67 |
| AAGGUUGCUAAUAGUCGCAAU [Fam3.1 aminoacylation ribozyme variant] | 1.99 | 1.46 | 1.81 | 1.68 |
| CUCCUUCAAACAAUCAGUCUG [Fam1A.1 aminoacylation ribozyme variant] | 0.75 | 0.837 | 0.655 | 0.753 |
| CCACACUUCAAUGAAUCGGUC [Fam1B.1 aminoacylation ribozyme variant] | 0.949 | 0.839 | 0.698 | 1.05 |
| CCACUUCAAACAAUCGGUAUG [Fam1A.1 aminoacylation ribozyme variant] | 0.877 | 0.871 | 0.823 | 1.14 |
| UUACUUCAACCAAUCGGUCUG [Fam1A.1 aminoacylation ribozyme variant] | 1.31 | 1.19 | 1.16 | 1.42 |
| AGUCAACUAGGUCAUCGGGUG [Fam2.2 aminoacylation ribozyme variant] | 5.91 | 4.95 | 7.24 | 8.39 |
| AGGCUUGCUAAUAGUCGCAAG [Fam3.1 aminoacylation ribozyme variant] | 2.17 | 1.96 | 2.14 | 2.31 |
| CUUCACCUAGGACAUCGGGUG [Fam2.2 aminoacylation ribozyme variant] | 2.34 | 2.68 | 3.03 | 3.53 |
| AUACUUCAAAAAAUCGGUCUG [Fam1A.1 aminoacylation ribozyme variant] | 1.01 | 0.839 | 0.926 | 1 |
